pEC50, pIC50: −log10 of the molar value. Calls of active or inactive are those of the source.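 How the source made its calls: active means compounds giving half or more protection of infected cells from virus-caused growth loss, again on retest; inactive means the rest.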
System: CEM cells HIV-1 protection, formazan growth assay
Test: NCI AIDS Antiviral Assay
Method in brief: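 Screen of anti-HIV-1 activity in human CEM cells using a formazan-based growth measurement at five drug concentrations. Hits with 50% or greater protection were repeated, and confirmation required reproducible complete protection.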

SMILES	outcome	pEC50	pIC50 (measured here: growth of uninfected CEM cells)
COc1c(O)cc2c(c1OC)-c1ccc(SC)c(=O)cc1C(NC=O)CC2 (stereo not drawn)	inactive	–	–
CCCCOC(=O)Oc1cc2c(c(OC)c1OC)-c1ccc(SC)c(=O)cc1[C@@H](NC(C)=O)CC2	–	< 4.14	7.64
